Data published in article doi:10.1101/2025.08.04.668392 (bioRxiv, 2025).

Sequences of proteins named here, by UniProt entry; tags and fusion partners are left off. A change or cut given only in a name is not applied to a line headed by its entry.
UniProt O42480: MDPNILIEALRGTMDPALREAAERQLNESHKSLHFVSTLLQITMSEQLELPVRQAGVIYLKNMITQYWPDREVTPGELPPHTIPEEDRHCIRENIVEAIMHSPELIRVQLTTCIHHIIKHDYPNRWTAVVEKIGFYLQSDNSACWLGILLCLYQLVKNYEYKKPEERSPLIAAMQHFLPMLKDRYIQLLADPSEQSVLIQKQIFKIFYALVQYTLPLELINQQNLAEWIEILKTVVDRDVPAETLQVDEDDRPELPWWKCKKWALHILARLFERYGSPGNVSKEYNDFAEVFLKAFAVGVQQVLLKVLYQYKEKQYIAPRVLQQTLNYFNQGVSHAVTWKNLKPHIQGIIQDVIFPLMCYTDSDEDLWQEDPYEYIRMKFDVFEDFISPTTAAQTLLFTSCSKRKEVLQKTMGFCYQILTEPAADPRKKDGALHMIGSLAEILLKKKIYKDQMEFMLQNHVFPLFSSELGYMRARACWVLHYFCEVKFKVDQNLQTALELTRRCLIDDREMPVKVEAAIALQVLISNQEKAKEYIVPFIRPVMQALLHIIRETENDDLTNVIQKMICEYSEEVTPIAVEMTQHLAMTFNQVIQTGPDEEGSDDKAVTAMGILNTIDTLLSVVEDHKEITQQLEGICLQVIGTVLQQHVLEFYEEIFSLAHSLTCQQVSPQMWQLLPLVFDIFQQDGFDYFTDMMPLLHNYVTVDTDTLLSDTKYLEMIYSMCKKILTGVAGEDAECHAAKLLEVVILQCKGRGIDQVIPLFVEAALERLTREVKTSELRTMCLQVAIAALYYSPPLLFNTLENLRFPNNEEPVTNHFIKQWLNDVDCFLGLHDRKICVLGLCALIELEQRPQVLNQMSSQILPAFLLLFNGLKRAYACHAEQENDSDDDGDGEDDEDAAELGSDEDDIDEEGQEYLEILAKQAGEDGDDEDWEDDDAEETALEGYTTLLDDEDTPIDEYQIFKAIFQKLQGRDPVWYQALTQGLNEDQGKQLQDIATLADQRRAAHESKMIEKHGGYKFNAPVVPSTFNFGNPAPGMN

Biological target: Importin 7 (xlImp7) of the purified trimeric complex Impβ:Imp7:H1.11L-chick (X. laevis) (UniProt O42480)
Experiment: cross-linking

B1: Histone H1.11L from chicken (natural protein, chicken (Gallus gallus), UniProt P08287 1-225, looked up)
chain: MSETAPAPAAEAAPAAAPAPAKAAAKKPKKAAGGAKARKPAGPSVTELITKAVSASKERKGLSLAALKKALAAGGYDVEKNNSRIKLGLKSLVSKGTLVQTKGTGASGSFRLSKKPGEVKEKAPKKKASAAKPKKPAAKKPAAAAKKPKKAVAVKKSPKKAKKPAASATKKSAKSPKKVTKAVKPKKAVAAKSPAKAKAVKPKAAKPKAAKPKAAKAKKAAAKKK
binding: binds

Results are given in words; binding and its absence hold for the method and conditions named. A result given as binding can be weak or reduced; the word gives no strength.
